According to publication doi:10.1101/059964:
These are yes or no findings as the source states them, for the method shown. Binding seen in cells or lysates may run through a third protein. Here binding means that the protein was enriched with, or labelled near, the bait; the list need not be complete. For some assays here: A no says only that the protein was not detected with the bait.

The chains behind the UniProt entries cited, without tags or fusion partners.
UniProt Q99496: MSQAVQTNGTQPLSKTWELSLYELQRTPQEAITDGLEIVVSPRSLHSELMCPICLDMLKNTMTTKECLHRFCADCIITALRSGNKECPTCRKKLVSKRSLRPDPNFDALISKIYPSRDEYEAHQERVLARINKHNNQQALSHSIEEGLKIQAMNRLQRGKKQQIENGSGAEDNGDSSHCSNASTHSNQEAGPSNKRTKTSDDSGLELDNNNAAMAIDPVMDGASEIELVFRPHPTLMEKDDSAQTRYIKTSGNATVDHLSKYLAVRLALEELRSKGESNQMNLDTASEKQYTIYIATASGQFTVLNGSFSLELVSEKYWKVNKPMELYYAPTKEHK
UniProt Q06587: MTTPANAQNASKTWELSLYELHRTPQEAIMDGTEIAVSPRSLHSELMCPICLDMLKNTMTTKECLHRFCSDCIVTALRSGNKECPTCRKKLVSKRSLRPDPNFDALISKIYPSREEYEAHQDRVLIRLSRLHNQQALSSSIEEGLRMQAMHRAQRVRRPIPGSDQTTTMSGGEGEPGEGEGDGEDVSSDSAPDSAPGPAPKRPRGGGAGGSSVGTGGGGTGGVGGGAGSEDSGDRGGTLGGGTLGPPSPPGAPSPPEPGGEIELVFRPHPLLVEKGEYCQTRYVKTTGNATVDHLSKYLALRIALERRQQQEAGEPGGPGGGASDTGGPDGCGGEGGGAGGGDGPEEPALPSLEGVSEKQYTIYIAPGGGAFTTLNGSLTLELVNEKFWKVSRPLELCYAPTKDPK
UniProt P68400: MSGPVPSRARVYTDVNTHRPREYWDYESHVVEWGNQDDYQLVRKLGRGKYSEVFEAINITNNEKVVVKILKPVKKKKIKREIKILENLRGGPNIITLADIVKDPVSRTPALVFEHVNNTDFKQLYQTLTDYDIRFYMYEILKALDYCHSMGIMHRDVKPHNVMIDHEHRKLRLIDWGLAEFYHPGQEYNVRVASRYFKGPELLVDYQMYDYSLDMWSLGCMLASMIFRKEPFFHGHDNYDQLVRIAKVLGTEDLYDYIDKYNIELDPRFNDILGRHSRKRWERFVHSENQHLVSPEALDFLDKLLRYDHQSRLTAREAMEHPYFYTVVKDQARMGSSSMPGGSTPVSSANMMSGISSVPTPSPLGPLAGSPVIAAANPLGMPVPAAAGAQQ
UniProt Q76L83: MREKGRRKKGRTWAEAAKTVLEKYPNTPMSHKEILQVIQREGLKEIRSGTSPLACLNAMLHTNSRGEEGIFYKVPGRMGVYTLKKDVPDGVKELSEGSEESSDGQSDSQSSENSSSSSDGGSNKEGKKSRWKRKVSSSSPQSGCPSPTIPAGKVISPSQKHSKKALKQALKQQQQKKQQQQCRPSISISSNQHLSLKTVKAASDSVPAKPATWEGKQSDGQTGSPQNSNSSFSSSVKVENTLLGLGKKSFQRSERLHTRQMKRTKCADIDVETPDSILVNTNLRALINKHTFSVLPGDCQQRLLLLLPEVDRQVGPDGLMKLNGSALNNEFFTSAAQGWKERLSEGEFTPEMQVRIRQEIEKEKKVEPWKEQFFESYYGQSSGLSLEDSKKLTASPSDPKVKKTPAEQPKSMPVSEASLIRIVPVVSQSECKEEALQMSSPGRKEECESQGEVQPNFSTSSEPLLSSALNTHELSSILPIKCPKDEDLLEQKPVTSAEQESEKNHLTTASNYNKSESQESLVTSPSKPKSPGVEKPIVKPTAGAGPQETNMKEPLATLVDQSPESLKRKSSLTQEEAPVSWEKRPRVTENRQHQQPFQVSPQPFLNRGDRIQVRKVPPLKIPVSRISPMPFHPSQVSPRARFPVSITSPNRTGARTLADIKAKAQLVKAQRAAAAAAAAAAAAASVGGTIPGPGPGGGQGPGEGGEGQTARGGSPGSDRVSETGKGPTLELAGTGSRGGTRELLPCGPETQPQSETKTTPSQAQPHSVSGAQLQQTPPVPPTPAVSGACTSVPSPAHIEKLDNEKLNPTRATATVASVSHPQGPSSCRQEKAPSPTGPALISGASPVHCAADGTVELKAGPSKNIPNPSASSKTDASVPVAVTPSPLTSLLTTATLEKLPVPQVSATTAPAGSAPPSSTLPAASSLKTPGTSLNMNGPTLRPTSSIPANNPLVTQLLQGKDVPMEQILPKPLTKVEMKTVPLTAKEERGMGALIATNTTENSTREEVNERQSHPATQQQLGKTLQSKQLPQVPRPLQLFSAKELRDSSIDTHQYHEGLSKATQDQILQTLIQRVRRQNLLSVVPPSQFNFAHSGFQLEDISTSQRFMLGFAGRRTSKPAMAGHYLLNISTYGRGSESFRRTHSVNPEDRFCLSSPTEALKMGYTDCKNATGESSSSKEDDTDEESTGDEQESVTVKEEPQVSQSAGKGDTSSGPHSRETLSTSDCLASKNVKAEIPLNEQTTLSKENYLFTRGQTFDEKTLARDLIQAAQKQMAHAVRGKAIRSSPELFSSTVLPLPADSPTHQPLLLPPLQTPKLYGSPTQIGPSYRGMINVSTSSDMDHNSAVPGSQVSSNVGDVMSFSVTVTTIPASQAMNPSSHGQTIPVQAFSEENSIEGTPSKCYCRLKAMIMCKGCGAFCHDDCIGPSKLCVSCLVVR

What was measured:
Test in all cases: affinity purification with mass spectrometry
[1] = biological target: T1, DCAF7 (human) (UniProt P61962)
T1 sequence: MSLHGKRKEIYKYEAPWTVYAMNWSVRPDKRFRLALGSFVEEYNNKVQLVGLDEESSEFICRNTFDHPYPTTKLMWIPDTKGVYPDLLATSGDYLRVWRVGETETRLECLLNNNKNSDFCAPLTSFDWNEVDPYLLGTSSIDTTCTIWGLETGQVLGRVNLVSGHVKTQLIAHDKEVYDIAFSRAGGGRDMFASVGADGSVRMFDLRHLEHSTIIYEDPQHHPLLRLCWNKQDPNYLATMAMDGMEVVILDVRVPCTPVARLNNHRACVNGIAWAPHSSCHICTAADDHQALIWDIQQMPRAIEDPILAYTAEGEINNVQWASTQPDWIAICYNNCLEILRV

[2] = biological target: RING2 (human) (UniProt Q99496)
[3] = biological target: CSK22 (human) (UniProt P19784)
[4] = biological target: T2, RYBP (human) (UniProt Q8N488)
T2 sequence: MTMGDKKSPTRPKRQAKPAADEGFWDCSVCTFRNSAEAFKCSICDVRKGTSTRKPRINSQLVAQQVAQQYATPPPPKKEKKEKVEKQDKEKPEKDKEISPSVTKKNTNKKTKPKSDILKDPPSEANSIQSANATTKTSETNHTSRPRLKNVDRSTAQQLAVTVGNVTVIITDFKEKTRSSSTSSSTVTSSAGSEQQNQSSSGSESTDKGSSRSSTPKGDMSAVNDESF

[5] = biological target: T3, YAF2 (human) (UniProt Q8IY57)
T3 sequence: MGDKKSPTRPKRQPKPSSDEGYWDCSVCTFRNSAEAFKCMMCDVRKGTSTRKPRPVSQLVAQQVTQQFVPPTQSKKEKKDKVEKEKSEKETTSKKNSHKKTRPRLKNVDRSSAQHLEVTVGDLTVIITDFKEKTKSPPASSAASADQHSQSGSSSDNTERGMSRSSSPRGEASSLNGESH

[6] = biological target: RING1 (human) (UniProt Q06587)
[7] = biological target: CSK21 (human) (UniProt P68400)
[8] = biological target: T4, OGT1 (human) (UniProt O15294)
T4 sequence: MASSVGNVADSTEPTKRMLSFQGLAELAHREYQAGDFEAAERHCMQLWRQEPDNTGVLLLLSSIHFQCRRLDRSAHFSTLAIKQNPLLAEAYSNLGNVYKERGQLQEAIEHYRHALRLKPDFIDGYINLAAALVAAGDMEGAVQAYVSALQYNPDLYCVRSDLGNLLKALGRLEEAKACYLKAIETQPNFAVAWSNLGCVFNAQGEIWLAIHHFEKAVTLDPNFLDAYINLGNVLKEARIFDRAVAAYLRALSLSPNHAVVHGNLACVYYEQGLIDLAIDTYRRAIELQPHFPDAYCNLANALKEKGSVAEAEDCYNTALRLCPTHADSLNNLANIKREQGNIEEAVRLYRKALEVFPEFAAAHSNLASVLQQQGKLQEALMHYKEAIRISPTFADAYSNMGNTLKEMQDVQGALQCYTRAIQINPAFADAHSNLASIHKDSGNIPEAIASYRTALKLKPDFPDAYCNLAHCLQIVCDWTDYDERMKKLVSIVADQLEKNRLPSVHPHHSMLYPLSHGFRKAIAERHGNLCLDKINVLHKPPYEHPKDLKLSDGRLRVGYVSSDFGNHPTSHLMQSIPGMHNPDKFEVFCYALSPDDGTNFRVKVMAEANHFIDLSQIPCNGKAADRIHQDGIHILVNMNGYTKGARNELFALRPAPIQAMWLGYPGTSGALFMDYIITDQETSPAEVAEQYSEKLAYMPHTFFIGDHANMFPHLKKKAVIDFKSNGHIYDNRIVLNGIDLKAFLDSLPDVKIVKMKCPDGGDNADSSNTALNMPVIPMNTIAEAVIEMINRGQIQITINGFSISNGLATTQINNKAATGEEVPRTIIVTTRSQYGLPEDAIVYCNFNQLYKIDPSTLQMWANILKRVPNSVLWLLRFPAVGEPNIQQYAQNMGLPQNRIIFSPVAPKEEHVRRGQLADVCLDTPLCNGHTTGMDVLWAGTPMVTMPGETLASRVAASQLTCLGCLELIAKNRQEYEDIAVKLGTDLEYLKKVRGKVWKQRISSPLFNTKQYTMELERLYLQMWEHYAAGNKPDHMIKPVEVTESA

[9] = biological target: ASXL2 (human) (UniProt Q76L83)
[10] = biological target: CBX5 (human), P45973; settings: remark: other sources report otherwise

B1: PCGF3 (protein, UniProt Q3KNV8 1-242)
chain: MLTRKIKLWDINAHITCRLCSGYLIDATTVTECLHTFCRSCLVKYLEENNTCPTCRIVIHQSHPLQYIGHDRTMQDIVYKLVPGLQEAEMRKQREFYHKLGMEVPGDIKGETCSAKQHLDSHRNGETKADDSSNKEAAEEKPEEDNDYHRSDEQVSICLECNSSKLRGLKRKWIRCSAQATVLHLKKFIAKKLNLSSFNELDILCNEEILGKDHTLKFVVVTRWRFKKAPLLLHYRPKMDLL
binding [1]: binds | binding [2]: binds | binding [3]: binds | binding [4]: binds | binding [5]: binds | binding [6]: binds | binding [7]: binds

B2: MBD6 (protein, UniProt Q96DN6 1-1003)
chain: MNGGNESSGADRAGGPVATSVPIGWQRCVREGAVLYISPSGTELSSLEQTRSYLLSDGTCKCGLECPLNVPKVFNFDPLAPVTPGGAGVGPASEEDMTKLCNHRRKAVAMATLYRSMETTCSHSSPGEGASPQMFHTVSPGPPSARPPCRVPPTTPLNGGPGSLPPEPPSVSQAFPTLAGPGGLFPPRLADPVPSGGSSSPRFLPRGNAPSPAPPPPPAISLNAPSYNWGAALRSSLVPSDLGSPPAPHASSSPPSDPPLFHCSDALTPPPLPPSNNLPAHPGPASQPPVSSATMHLPLVLGPLGGAPTVEGPGAPPFLASSLLSAAAKAQHPPLPPPSTLQGRRPRAQAPSASHSSSLRPSQRRPRRPPTVFRLLEGRGPQTPRRSRPRAPAPVPQPFSLPEPSQPILPSVLSLLGLPTPGPSHSDGSFNLLGSDAHLPPPPTLSSGSPPQPRHPIQPSLPGTTSGSLSSVPGAPAPPAASKAPVVPSPVLQSPSEGLGMGAGPACPLPPLAGGEAFPFPSPEQGLALSGAGFPGMLGALPLPLSLGQPPPSPLLNHSLFGVLTGGGGQPPPEPLLPPPGGPGPPLAPGEPEGPSLLVASLLPPPPSDLLPPPSAPPSNLLASFLPLLALGPTAGDGEGSAEGAGGPSGEPFSGLGDLSPLLFPPLSAPPTLIALNSALLAATLDPPSGTPPQPCVLSAPQPGPPTSSVTTATTDPGASSLGKAPSNSGRPPQLLSPLLGASLLGDLSSLTSSPGALPSLLQPPGPLLSGQLGLQLLPGGGAPPPLSEASSPLACLLQSLQIPPEQPEAPCLPPESPASALEPEPARPPLSALAPPHGSPDPPVPELLTGRGSGKRGRRGGGGLRGINGEARPARGRKPGSRREPGRLALKWGTRGGFNGQMERSPRRTHHWQHNGELAEGGAEPKDPPPPGPHSEDLKVPPGVVRKSRRGRRRKYNPTRNSNSSRQDITLEPSPTARAAVPLPPRARPGRPAKNKRRKLAP
binding [8]: no binding | binding [9]: binds

B3: NCOAT (enzyme, UniProt O60502 1-916)
chain: MVQKESQATLEERESELSSNPAASAGASLEPPAAPAPGEDNPAGAGGAAVAGAAGGARRFLCGVVEGFYGRPWVMEQRKELFRRLQKWELNTYLYAPKDDYKHRMFWREMYSVEEAEQLMTLISAAREYEIEFIYAISPGLDITFSNPKEVSTLKRKLDQVSQFGCRSFALLFDDIDHNMCAADKEVFSSFAHAQVSITNEIYQYLGEPETFLFCPTEYCGTFCYPNVSQSPYLRTVGEKLLPGIEVLWTGPKVVSKEIPVESIEEVSKIIKRAPVIWDNIHANDYDQKRLFLGPYKGRSTELIPRLKGVLTNPNCEFEANYVAIHTLATWYKSNMNGVRKDVVMTDSEDSTVSIQIKLENEGSDEDIETDVLYSPQMALKLALTEWLQEFGVPHQYSSRQVAHSGAKASVVDGTPLVAAPSLNATTVVTTVYQEPIMSQGAALSGEPTTLTKEEEKKQPDEEPMDMVVEKQEETDHKNDNQILSEIVEAKMAEELKPMDTDKESIAESKSPEMSMQEDCISDIAPMQTDEQTNKEQFVPGPNEKPLYTAEPVTLEDLQLLADLFYLPYEHGPKGAQMLREFQWLRANSSVVSVNCKGKDSEKIEEWRSRAAKFEEMCGLVMGMFTRLSNCANRTILYDMYSYVWDIKSIMSMVKSFVQWLGCRSHSSAQFLIGDQEPWAFRGGLAGEFQRLLPIDGANDLFFQPPPLTPTSKVYTIRPYFPKDEASVYKICREMYDDGVGLPFQSQPDLIGDKLVGGLLSLSLDYCFVLEDEDGICGYALGTVDVTPFIKKCKISWIPFMQEKYTKPNGDKELSEAEKIMLSFHEEQEVLPETFLANFPSLIKMDIHKKVTDPSVAKSMMACLLSSLKANGSRGAFCEVRPDDKRILEFYSKLGCFEIAKMEGFPKDVVILGRSL
binding [8]: binds

B4: EHMT2, Q96KQ7 1-1210 (protein)
chain: MAAAAGAAAAAAAEGEAPAEMGALLLEKETRGATERVHGSLGDTPRSEETLPKATPDSLEPAGPSSPASVTVTVGDEGADTPVGATPLIGDESENLEGDGDLRGGRILLGHATKSFPSSPSKGGSCPSRAKMSMTGAGKSPPSVQSLAMRLLSMPGAQGAAAAGSEPPPATTSPEGQPKVHRARKTMSKPGNGQPPVPEKRPPEIQHFRMSDDVHSLGKVTSDLAKRRKLNSGGGLSEELGSARRSGEVTLTKGDPGSLEEWETVVGDDFSLYYDSYSVDERVDSDSKSEVEALTEQLSEEEEEEEEEEEEEEEEEEEEEEEEDEESGNQSDRSGSSGRRKAKKKWRKDSPWVKPSRKRRKREPPRAKEPRGVNGVGSSGPSEYMEVPLGSLELPSEGTLSPNHAGVSNDTSSLETERGFEELPLCSCRMEAPKIDRISERAGHKCMATESVDGELSGCNAAILKRETMRPSSRVALMVLCETHRARMVKHHCCPGCGYFCTAGTFLECHPDFRVAHRFHKACVSQLNGMVFCPHCGEDASEAQEVTIPRGDGVTPPAGTAAPAPPPLSQDVPGRADTSQPSARMRGHGEPRRPPCDPLADTIDSSGPSLTLPNGGCLSAVGLPLGPGREALEKALVIQESERRKKLRFHPRQLYLSVKQGELQKVILMLLDNLDPNFQSDQQSKRTPLHAAAQKGSVEICHVLLQAGANINAVDKQQRTPLMEAVVNNHLEVARYMVQRGGCVYSKEEDGSTCLHHAAKIGNLEMVSLLLSTGQVDVNAQDSGGWTPIIWAAEHKHIEVIRMLLTRGADVTLTDNEENICLHWASFTGSAAIAEVLLNARCDLHAVNYHGDTPLHIAARESYHDCVLLFLSRGANPELRNKEGDTAWDLTPERSDVWFALQLNRKLRLGVGNRAIRTEKIICRDVARGYENVPIPCVNGVDGEPCPEDYKYISENCETSTMNIDRNITHLQHCTCVDDCSSSNCLCGQLSIRCWYDKDGRLLQEFNKIEPPLIFECNQACSCWRNCKNRVVQSGIKVRLQLYRTAKMGWGVRALQTIPQGTFICEYVGELISDAEADVREDDSYLFDLDNKDGEVYCIDARYYGNISRFINHLCDPNIIPVRVFMLHQDLRFPRIAFFSSRDIRTGEELGFDYGDRFWDIKSKYFTCQCGSEKCKHSAEAIALEQSRLARLDPHPELLPELGSLPPVNT
binding [10]: no binding
